Source: PubChem BioAssay AID188 (DTP/NCI, 2004)
Shown are survivors of the treated group in tumour-free mice. Survivors were counted at the toxicity check, usually on the fifth day, unless a day is given; later deaths do not show. Schedules are NCI's codes, taken here to give the interval after Q, in days (D) or hours (H), and the number of doses after X. Some entries were tested several times; their values stand side by side, smallest first.

Test system: CD2F1 mice, nontumored, toxicity/survival
Experiment: NCI In Vivo Anticancer Drug Screen. Data for tumor model Nontumored Animals (Toxicity Test) in CD2F1 (CDF1) mice

With CC(=O)NC(CCC(=O)C=[N+]=N)C(=O)O (stereo unspecified) the survivor count (dose: 0.01 mg/kg/injection, schedule: Q03HX016 (ip), vehicle: saline) was 8 of 8, the survivor count (dose: 0.01 mg/kg/injection, schedule: Q03HX024 (ip), vehicle: saline) was 8 of 8 and the survivor count (dose: 0.03 mg/kg/injection, schedule: Q03HX008 (ip), vehicle: saline) was 8 of 8. For the same molecule, the survivor count (dose: 0.03 mg/kg/injection, schedule: Q03HX016 (ip), vehicle: saline) was 8 of 8, the survivor count (dose: 0.03 mg/kg/injection, schedule: Q03HX024 (ip), vehicle: saline) was 8 of 8 and the survivor count (dose: 0.06 mg/kg/injection, schedule: Q03HX008 (ip), vehicle: saline) was 8 of 8. The survivor count (dose: 0.06 mg/kg/injection, schedule: Q03HX016 (ip), vehicle: saline) was 8 of 8, the survivor count (dose: 0.06 mg/kg/injection, schedule: Q03HX024 (ip), vehicle: saline) was 8 of 8 and the survivor count (dose: 0.13 mg/kg/injection, schedule: Q01DX005 (iv), vehicle: saline) was 8 of 8. The survivor count (dose: 0.13 mg/kg/injection, schedule: Q01DX009 (ip), vehicle: saline) was 8 of 8, the survivor count (dose: 0.13 mg/kg/injection, schedule: Q01DX009 (oral), vehicle: saline) was 8 of 8 and the survivor count (dose: 0.13 mg/kg/injection, schedule: Q03HX008 (ip), vehicle: saline) was 8 of 8. The survivor count (dose: 0.13 mg/kg/injection, schedule: Q03HX016 (ip), vehicle: saline) was 8 of 8, the survivor count (dose: 0.13 mg/kg/injection, schedule: Q03HX024 (ip), vehicle: saline) was 8 of 8 and the survivor count (dose: 0.13 mg/kg/injection, schedule: Q04DX003 (ip), vehicle: saline) was 8 of 8. The survivor count (dose: 0.13 mg/kg/injection, schedule: Q08DX002 (ip), vehicle: saline) was 8 of 8, the survivor count (dose: 0.25 mg/kg/injection, schedule: Q01DX001 (ip), vehicle: saline) was 8 of 8 and the survivor count (dose: 0.25 mg/kg/injection, schedule: Q01DX001 (iv), vehicle: saline) was 8 of 8. The survivor count (dose: 0.25 mg/kg/injection, schedule: Q01DX005 (iv), vehicle: saline) was 8 of 8, the survivor count (dose: 0.25 mg/kg/injection, schedule: Q01DX009 (ip), vehicle: saline) was 8 of 8 and the survivor count (dose: 0.25 mg/kg/injection, schedule: Q01DX009 (oral), vehicle: saline) was 8 of 8. For the same molecule, the survivor count (dose: 0.25 mg/kg/injection, schedule: Q03HX008 (ip), vehicle: saline) was 8 of 8, the survivor count (dose: 0.25 mg/kg/injection, schedule: Q03HX016 (ip), vehicle: saline) was 8 of 8 and the survivor count (dose: 0.25 mg/kg/injection, schedule: Q03HX024 (ip), vehicle: saline) was 8 of 8. For the same molecule, the survivor count (dose: 0.25 mg/kg/injection, schedule: Q04DX003 (ip), vehicle: saline) was 8 of 8, the survivor count (dose: 0.25 mg/kg/injection, schedule: Q08DX002 (ip), vehicle: saline) was 8 of 8 and the survivor count (dose: 0.5 mg/kg/injection, schedule: Q01DX001 (ip), vehicle: saline) was 8 of 8. For the same molecule, the survivor count (dose: 0.5 mg/kg/injection, schedule: Q01DX001 (iv), vehicle: saline) was 8 of 8, the survivor count (dose: 0.5 mg/kg/injection, schedule: Q01DX005 (iv), vehicle: saline) was 8 of 8 and the survivor count (dose: 0.5 mg/kg/injection, schedule: Q01DX009 (ip), vehicle: saline) was 8 of 8. The survivor count (dose: 0.5 mg/kg/injection, schedule: Q01DX009 (oral), vehicle: saline) was 8 of 8, the survivor count (dose: 0.5 mg/kg/injection, schedule: Q03HX008 (ip), vehicle: saline) was 8 of 8 and the survivor count (dose: 0.5 mg/kg/injection, schedule: Q03HX016 (ip), vehicle: saline) was 8 of 8. For the same molecule, the survivor count (dose: 0.5 mg/kg/injection, schedule: Q03HX024 (ip), vehicle: saline) was 8 of 8, the survivor count (dose: 0.5 mg/kg/injection, schedule: Q04DX003 (ip), vehicle: saline) was 8 of 8 and the survivor count (dose: 0.5 mg/kg/injection, schedule: Q06HX008 (ip), vehicle: saline) was 8 of 8. For the same molecule, the survivor count (dose: 0.5 mg/kg/injection, schedule: Q06HX012 (ip), vehicle: saline) was 8 of 8, the survivor count (dose: 0.5 mg/kg/injection, schedule: Q08DX002 (ip), vehicle: saline) was 8 of 8 and the survivor count (dose: 1.0 mg/kg/injection, schedule: Q01DX001 (ip), vehicle: saline) was 8 of 8. For the same molecule, the survivor count (dose: 1.0 mg/kg/injection, schedule: Q01DX001 (iv), vehicle: saline) was 8 of 8, the survivor count (dose: 1.0 mg/kg/injection, schedule: Q01DX001 (oral), vehicle: saline) was 8 of 8 and the survivor count (dose: 1.0 mg/kg/injection, schedule: Q01DX005 (ip), vehicle: saline) was 8 of 8. For the same molecule, the survivor count (dose: 1.0 mg/kg/injection, schedule: Q01DX005 (iv), vehicle: saline) was 8 of 8, the survivor count (dose: 1.0 mg/kg/injection, schedule: Q01DX009 (ip), vehicle: saline) was 8 of 8 and the survivor count (dose: 1.0 mg/kg/injection, schedule: Q01DX009 (oral), vehicle: saline) was 8 of 8. The survivor count (dose: 1.0 mg/kg/injection, schedule: Q03HX008 (ip), vehicle: saline) was 8 of 8, the survivor count (dose: 1.0 mg/kg/injection, schedule: Q03HX016 (ip), vehicle: saline) was 8 of 8 and the survivor count (dose: 1.0 mg/kg/injection, schedule: Q03HX024 (ip), vehicle: saline) was 8 of 8. The survivor count (dose: 1.0 mg/kg/injection, schedule: Q04DX003 (ip), vehicle: saline) was 8 of 8, the survivor count (dose: 1.0 mg/kg/injection, schedule: Q06HX008 (ip), vehicle: saline) was 8 of 8 and the survivor count (dose: 1.0 mg/kg/injection, schedule: Q06HX012 (ip), vehicle: saline) was 8 of 8. For the same molecule, the survivor count (dose: 1.0 mg/kg/injection, schedule: Q08DX002 (ip), vehicle: saline) was 8 of 8, the survivor count (dose: 2.0 mg/kg/injection, schedule: Q01DX001 (ip), vehicle: saline) was 8 of 8 and the survivor count (dose: 2.0 mg/kg/injection, schedule: Q01DX001 (iv), vehicle: saline) was 8 of 8. For the same molecule, the survivor count (dose: 2.0 mg/kg/injection, schedule: Q01DX001 (oral), vehicle: saline) was 8 of 8, the survivor count (dose: 2.0 mg/kg/injection, schedule: Q01DX005 (ip), vehicle: saline) was 6 of 8 and the survivor count (dose: 2.0 mg/kg/injection, schedule: Q01DX005 (iv), vehicle: saline) was 7 of 8 and 8 of 8. For the same molecule, the survivor count (dose: 2.0 mg/kg/injection, schedule: Q01DX009 (ip), vehicle: saline) was 8 of 8, the survivor count (dose: 2.0 mg/kg/injection, schedule: Q03HX008 (ip), vehicle: saline) was 8 of 8 and the survivor count (dose: 2.0 mg/kg/injection, schedule: Q03HX016 (ip), vehicle: saline) was 8 of 8. For the same molecule, the survivor count (dose: 2.0 mg/kg/injection, schedule: Q03HX024 (ip), vehicle: saline) was 8 of 8, the survivor count (dose: 2.0 mg/kg/injection, schedule: Q04DX003 (ip), vehicle: saline) was 8 of 8 and the survivor count (dose: 2.0 mg/kg/injection, schedule: Q06HX008 (ip), vehicle: saline) was 8 of 8. The survivor count (dose: 2.0 mg/kg/injection, schedule: Q06HX012 (ip), vehicle: saline) was 8 of 8, the survivor count (dose: 2.0 mg/kg/injection, schedule: Q08DX002 (ip), vehicle: saline) was 8 of 8 and the survivor count (dose: 4.0 mg/kg/injection, schedule: Q01DX001 (ip), vehicle: saline) was 8 of 8. For the same molecule, the survivor count (dose: 4.0 mg/kg/injection, schedule: Q01DX001 (iv), vehicle: saline) was 8 of 8, the survivor count (dose: 4.0 mg/kg/injection, schedule: Q01DX001 (oral), vehicle: saline) was 8 of 8 and the survivor count (dose: 4.0 mg/kg/injection, schedule: Q01DX005 (ip), vehicle: saline) was 7 of 8. For the same molecule, the survivor count (dose: 4.0 mg/kg/injection, schedule: Q01DX005 (iv), vehicle: saline) was 7 of 8, the survivor count (dose: 4.0 mg/kg/injection, schedule: Q01DX009 (ip), vehicle: saline) was 7 of 8 and the survivor count (dose: 4.0 mg/kg/injection, schedule: Q04DX003 (ip), vehicle: saline) was 8 of 8. The survivor count (dose: 4.0 mg/kg/injection, schedule: Q06HX008 (ip), vehicle: saline) was 8 of 8, the survivor count (dose: 4.0 mg/kg/injection, schedule: Q06HX012 (ip), vehicle: saline) was 8 of 8 and the survivor count (dose: 4.0 mg/kg/injection, schedule: Q08DX002 (ip), vehicle: saline) was 8 of 8. The survivor count (dose: 8.0 mg/kg/injection, schedule: Q01DX001 (ip), vehicle: saline) was 8 of 8, the survivor count (dose: 8.0 mg/kg/injection, schedule: Q01DX001 (oral), vehicle: saline) was 7 of 8 and the survivor count (dose: 8.0 mg/kg/injection, schedule: Q01DX005 (ip), vehicle: saline) was 6 of 8. The survivor count (dose: 8.0 mg/kg/injection, schedule: Q01DX009 (ip), vehicle: saline) was 4 of 8, the survivor count (dose: 8.0 mg/kg/injection, schedule: Q04DX003 (ip), vehicle: saline) was 8 of 8 and the survivor count (dose: 8.0 mg/kg/injection, schedule: Q08DX002 (ip), vehicle: saline) was 8 of 8. For the same molecule, the survivor count (dose: 16.0 mg/kg/injection, schedule: Q01DX001 (ip), vehicle: saline) was 8 of 8, the survivor count (dose: 16.0 mg/kg/injection, schedule: Q01DX005 (ip), vehicle: saline) was 4 of 8 and the survivor count (dose: 16.0 mg/kg/injection, schedule: Q04DX003 (ip), vehicle: saline) was 8 of 8. The survivor count (dose: 16.0 mg/kg/injection, schedule: Q08DX002 (ip), vehicle: saline) was 8 of 8.

With Cc1ccc(-c2nc(N)nc(N)n2)cc1 the survivor count (dose: 1.0 mg/kg/injection, schedule: Q01DX001 (ip), vehicle: water) was 2 of 2, the survivor count (dose: 10.0 mg/kg/injection, schedule: Q01DX001 (ip), vehicle: water) was 2 of 2 and the survivor count (dose: 100.0 mg/kg/injection, schedule: Q01DX001 (ip), vehicle: water) was 2 of 2.

In the case of CC(=O)Nc1nc(Br)c2ccccc2c1-c1ccc(N(CCOS(C)(=O)=O)CCOS(C)(=O)=O)cc1, the survivor count (dose: 1.0 mg/kg/injection, schedule: Q01DX001 (ip), vehicle: other) is reported as 2 of 2, the survivor count (dose: 10.0 mg/kg/injection, schedule: Q01DX001 (ip), vehicle: other) is reported as 2 of 2 and the survivor count (dose: 100.0 mg/kg/injection, schedule: Q01DX001 (ip), vehicle: other) is reported as 2 of 2.
